The record followed here is patent US20110318429A1.

Protein sequences, listed by entry. Tags and fused reporters are not part of them. Residues count along the entry.
UniProt P60953, residues 1-188: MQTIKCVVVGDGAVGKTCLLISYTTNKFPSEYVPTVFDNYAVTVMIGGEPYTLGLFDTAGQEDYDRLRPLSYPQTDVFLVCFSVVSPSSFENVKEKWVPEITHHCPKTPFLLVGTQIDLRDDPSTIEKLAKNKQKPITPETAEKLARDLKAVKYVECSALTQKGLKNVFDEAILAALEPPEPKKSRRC
UniProt Q13153, residues 67-150: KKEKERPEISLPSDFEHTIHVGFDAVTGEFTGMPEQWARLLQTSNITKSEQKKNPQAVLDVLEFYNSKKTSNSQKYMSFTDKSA

Results are given in words; binding and its absence hold for the method and conditions named. In cells and extracts the contact can be indirect. Some entries that bind do so weakly or less than the wild type.

The target in the test is Active GTP-bound Cdc42 from A549 cell lysate (human) (UniProt P60953). Briefly: pull-down from A549 lysate on glutathione beads, immunoblot with anti-Cdc42. A general note: Immunoblotting shows a protein as a band on a membrane.

Regarding “GST-PBD fusion protein of PAK1 immobilized on glutathione beads (from UniProt Q13153 67-150)”, the binding result is “binds”.
